Experimental data: PubChem BioAssay AID330 (DTP/NCI, 2004)
The list does not hold the whole screen: it gathers some chemical classes. Not every dose and run of a compound is shown. T/C: endpoint of the treated group in % of that of the vehicle group. Some entries give survivors of the animals treated and no T/C: the source holds a T/C of zero for them, seemingly a mark for toxic or unscored doses. Some doses without a T/C left all or most animals alive at the check, yet need not have been tolerated: survival well below the control is almost never listed, so the zero probably covers shortened survival too. Counts of survivors are from the toxicity check (mostly the fifth day) where no day follows; animals may have died later. Schedules are NCI's codes, taken here to give the interval after Q, in days (D) or hours (H), and the number of doses after X. For survival time, this PubChem deposit counts one and a half times the control or more as active, and values a quarter to a half above the control carry no call in these data; other NCI protocols may use other cut-offs. Some doses were run more than once; the values are given in rising order. Some entries show no survivor count and are marked so; the dose need not have been tolerated.

System: P388 leukemia ip, CD2F1 mice, survival T/C
Assay: NCI In Vivo Anticancer Drug Screen. Data for tumor model P388 Leukemia (intraperitoneal) in CD2F1 (CDF1) mice
Conditions: T/C endpoint: median survival time, higher T/C = longer survival
[1] = dose: 12.5 mg/kg/injection, schedule: Q04DX003 (ip), vehicle: saline
[2] = dose: 18.75 mg/kg/injection, schedule: Q04DX003 (ip), vehicle: Klucel (hydroxypropylcellulose) (HPC)

Cc1ccc2nc(CN(CCCl)CCCl)[nH]c2c1
T/C (dose: 4.12 mg/kg/injection, schedule: Q01DX009 (ip), vehicle: saline sonified): 136 % of control [survivor count not shown] | T/C (dose: 4.4 mg/kg/injection, schedule: Q01DX009 (ip), vehicle: saline): 145 % of control [survivor count not shown] | T/C (dose: 5.0 mg/kg/injection, schedule: Q01DX009 (ip), vehicle: saline): 136 % of control [survivor count not shown] | T/C (dose: 6.25 mg/kg/injection, schedule: Q01DX009 (ip), vehicle: saline sonified): 145 [survivor count not shown] and 172 % of control [survivor count not shown] | T/C (dose: 6.6 mg/kg/injection, schedule: Q01DX009 (ip), vehicle: saline): 135 % of control [survivor count not shown] | T/C (dose: 8.3 mg/kg/injection, schedule: Q04DX003 (ip), vehicle: saline): 95 % of control [survivor count not shown] | T/C (dose: 9.4 mg/kg/injection, schedule: Q01DX009 (ip), vehicle: saline sonified): 168 % of control [survivor count not shown] | T/C (dose: 10.0 mg/kg/injection, schedule: Q01DX009 (ip), vehicle: saline): 170 [survivor count not shown] and 172 % of control [survivor count not shown] | T/C (dose: 11.0 mg/kg/injection, schedule: Q01DX001 (ip), vehicle: saline): 136 % of control [survivor count not shown] | T/C (dose: 12.5 mg/kg/injection, schedule: Q01DX009 (ip), vehicle: saline sonified): 127 % of control [survivor count not shown] | T/C [1]: 104 % of control [survivor count not shown] | T/C (dose: 15.0 mg/kg/injection, schedule: Q01DX009 (ip), vehicle: saline): 130 % of control [survivor count not shown] | T/C (dose: 16.5 mg/kg/injection, schedule: Q01DX001 (ip), vehicle: saline): 136 % of control [survivor count not shown] | T/C (dose: 18.75 mg/kg/injection, schedule: Q04DX003 (ip), vehicle: saline): 116 % of control [survivor count not shown] | T/C (dose: 20.0 mg/kg/injection, schedule: Q01DX009 (ip), vehicle: saline): 190 % of control [survivor count not shown] | T/C (dose: 25.0 mg/kg/injection, schedule: Q01DX001 (ip), vehicle: saline): 136 % of control [survivor count not shown] | T/C (dose: 25.0 mg/kg/injection, schedule: Q04DX003 (ip), vehicle: saline with Tween-80): 100 % of control [survivor count not shown]

CCC(C)(O)C#CCN(CCCl)CCCl (stereo not drawn)
T/C [1]: 95 % of control [survivor count not shown]

ClCCN(CCCl)Cc1ccc(Cl)cc1
T/C (dose: 25.0 mg/kg/injection, schedule: Q04DX003 (ip), vehicle: alcohol): 165 % of control [survivor count not shown] | T/C (dose: 50.0 mg/kg/injection, schedule: Q04DX003 (ip), vehicle: alcohol): 95 % of control [survivor count not shown]

O=C1/C(=C/N(CCCl)CCCl)CCc2ccccc21
T/C (dose: 100.0 mg/kg/injection, schedule: Q04DX003 (ip), vehicle: Klucel (hydroxypropylcellulose) (HPC)): 103 % of control [survivor count not shown] | T/C (dose: 200.0 mg/kg/injection, schedule: Q04DX003 (ip), vehicle: Klucel (hydroxypropylcellulose) (HPC)): 100 % of control [survivor count not shown] | T/C (dose: 400.0 mg/kg/injection, schedule: Q04DX003 (ip), vehicle: Klucel (hydroxypropylcellulose) (HPC)): 104 % of control [survivor count not shown]

COC(=O)CCc1ccc(CN(CCCl)CCCl)cc1
T/C (dose: 0.37 mg/kg/injection, schedule: Q01DX009 (ip), vehicle: saline): 116 % of control [survivor count not shown] | T/C (dose: 0.75 mg/kg/injection, schedule: Q01DX009 (ip), vehicle: saline): 127 % of control [survivor count not shown] | T/C (dose: 1.0 mg/kg/injection, schedule: Q01DX009 (ip), vehicle: saline): 150 % of control [survivor count not shown] | T/C (dose: 1.0 mg/kg/injection, schedule: Q04DX003 (ip), vehicle: saline): 130 % of control [survivor count not shown] | T/C (dose: 1.5 mg/kg/injection, schedule: Q01DX009 (ip), vehicle: saline): 150 % of control [survivor count not shown] | T/C (dose: 2.0 mg/kg/injection, schedule: Q01DX009 (ip), vehicle: saline): 181 % of control [survivor count not shown] | T/C (dose: 2.0 mg/kg/injection, schedule: Q04DX003 (ip), vehicle: saline): 155 % of control [survivor count not shown] | T/C (dose: 3.0 mg/kg/injection, schedule: Q01DX009 (ip), vehicle: saline): 178 % of control [survivor count not shown] | T/C (dose: 4.0 mg/kg/injection, schedule: Q04DX003 (ip), vehicle: saline): 180 % of control [survivor count not shown] | T/C (dose: 6.0 mg/kg/injection, schedule: Q01DX009 (ip), vehicle: saline): 91 % of control [survivor count not shown]

ClCCN(CCCl)CCSc1nc2ccccc2[nH]1
T/C (dose: 25.0 mg/kg/injection, schedule: Q01DX001 (ip), vehicle: saline with Tween-80): 118 % of control [survivor count not shown] | T/C (dose: 50.0 mg/kg/injection, schedule: Q01DX001 (ip), vehicle: saline with Tween-80): 106 % of control [survivor count not shown] | T/C (dose: 100.0 mg/kg/injection, schedule: Q01DX001 (ip), vehicle: saline with Tween-80): 102 % of control [survivor count not shown]

NCCN(CCCl)CCCl
T/C (dose: 0.25 mg/kg/injection, schedule: Q01DX005 (ip), vehicle: saline): 168 and 172 % of control | T/C (dose: 0.5 mg/kg/injection, schedule: Q01DX005 (ip), vehicle: saline): 168 and 221 % of control | T/C (dose: 0.67 mg/kg/injection, schedule: Q01DX005 (ip), vehicle: saline): 191 % of control | T/C (dose: 1.0 mg/kg/injection, schedule: Q01DX005 (ip), vehicle: saline, evaluated on day 30): 178, 188, 241 % of control | T/C (dose: 1.0 mg/kg/injection, schedule: Q01DX005 (ip), vehicle: saline, evaluated on day 60): 191, 225, 227 % of control | T/C (dose: 1.5 mg/kg/injection, schedule: Q01DX005 (ip), vehicle: saline): 257, 277, 323 % of control | T/C (dose: 2.0 mg/kg/injection, schedule: Q01DX005 (ip), vehicle: saline): 86, 241, 267 % of control | T/C (dose: 2.2 mg/kg/injection, schedule: Q01DX005 (ip), vehicle: saline): 273 and 336 % of control

CC(C)(C)[Si](C)(C)N(CCCl)CCCl
T/C (dose: 4.68 mg/kg/injection, schedule: Q04DX003 (ip), vehicle: Klucel (hydroxypropylcellulose) (HPC)): 130 % of control | T/C (dose: 9.37 mg/kg/injection, schedule: Q04DX003 (ip), vehicle: Klucel (hydroxypropylcellulose) (HPC)): 145 and 153 % of control | T/C [2]: 171 % of control | survivor count [2]: 5 of 6 | survivor count (dose: 37.5 mg/kg/injection, schedule: Q04DX003 (ip), vehicle: Klucel (hydroxypropylcellulose) (HPC)): 4 of 6 | survivor count (dose: 75.0 mg/kg/injection, schedule: Q04DX003 (ip), vehicle: Klucel (hydroxypropylcellulose) (HPC)): 2 of 6 | survivor count (dose: 150.0 mg/kg/injection, schedule: Q04DX003 (ip), vehicle: Klucel (hydroxypropylcellulose) (HPC)): 1 of 6 | survivor count (dose: 300.0 mg/kg/injection, schedule: Q04DX003 (ip), vehicle: Klucel (hydroxypropylcellulose) (HPC)): 0 of 6

NP(=O)(OCc1ccccc1)N(CCCl)CCCl (stereo not drawn)
T/C (dose: 6.25 mg/kg/injection, schedule: Q01DX009 (ip), vehicle: saline): 113 % of control [survivor count not shown] | T/C (dose: 12.5 mg/kg/injection, schedule: Q01DX009 (ip), vehicle: saline): 113 % of control [survivor count not shown] | T/C (dose: 25.0 mg/kg/injection, schedule: Q01DX009 (ip), vehicle: saline with Tween-80): 109 % of control [survivor count not shown] | T/C (dose: 25.0 mg/kg/injection, schedule: Q01DX009 (ip), vehicle: saline): 145 % of control [survivor count not shown] | T/C (dose: 50.0 mg/kg/injection, schedule: Q01DX009 (ip), vehicle: saline with Tween-80): 122 % of control [survivor count not shown] | T/C (dose: 100.0 mg/kg/injection, schedule: Q01DX009 (ip), vehicle: saline with Tween-80): 136 % of control [survivor count not shown]
